Results reported in PubChem BioAssay AID1439 (NMMLSC, 2008).
The whole screen tested about 220,000 compounds, of which about 770 (0.35%) were called active. This list was built around the results that the source calls inconclusive (neither active nor inactive); the mix of calls is not that of the screen. No stated cut-off is given here; in the data, active means binding response below about 49% or above about 150%; inconclusive means no clear call, values can overlap the other calls; inactive means in between.

Sequences of proteins named here, by UniProt entry; tags and fusion partners are left off.
UniProt P09471, whole entry, looked up: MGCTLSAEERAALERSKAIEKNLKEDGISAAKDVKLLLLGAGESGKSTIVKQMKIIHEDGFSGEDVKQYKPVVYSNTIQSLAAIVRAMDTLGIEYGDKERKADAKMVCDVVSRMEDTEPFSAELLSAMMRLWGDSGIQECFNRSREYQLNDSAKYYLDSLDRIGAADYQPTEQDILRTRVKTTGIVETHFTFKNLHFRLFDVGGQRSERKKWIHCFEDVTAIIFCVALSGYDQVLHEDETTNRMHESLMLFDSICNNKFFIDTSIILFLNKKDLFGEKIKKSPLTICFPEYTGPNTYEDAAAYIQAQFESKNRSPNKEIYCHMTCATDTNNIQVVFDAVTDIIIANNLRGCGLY

Target: Guanine nucleotide-binding protein G(o) subunit alpha (Homo sapiens) (UniProt P09471)
Assay: RGS7-Galphao binding modulators, primary screen, biochemical, multiplexed bead flow cytometry (AID 1439);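 further: fluorescent Galphao held in activated GDP-AlF4 state binding bead-coupled RGS7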
Conditions: at 10 µM, actives lie on both sides

Which binding response (% of control) does the source give for `Cn1nc(C(F)(F)F)c(-c2ccccc2)c1N` here?
The binding response (% of control) was inconclusive: 96.7%.

How did the binding response (% of control) turn out when `C/C(=N\N)c1c(-c2ccccc2)c2cc(C)ccc2[nH]c1=O` was run?
The binding response (% of control) was inconclusive: 118%.

With `CCCCCC(=O)Nc1cccc(C2=NOC3(C2)C[C@H](C(N)=O)N(C(=O)CCCCC)C3)c1` (stereo not given in full) as the compound, how does the binding response (% of control) read?
The binding response (% of control) was inconclusive: 90%.

Which binding response (% of control) does the source give for `O=C(NC(C(=O)N/N=C/c1ccncc1)c1n[nH]c(=O)c2ccccc12)c1ccccc1` (stereo not given) here?
Its binding response (% of control) is inconclusive: 132%.

`COc1ccccc1-n1cnnc1SC(C)C(=O)Nc1ccc(NC(C)=O)cc1` (stereo not given) was tested. Which binding response (% of control) did it give?
The binding response (% of control) was inconclusive: 113%.

How did the binding response (% of control) turn out when `CC(C)CC(NC(=O)c1ccccc1NC(=O)c1ccccc1)C(=O)O` (stereo not given) was run?
Its binding response (% of control) is inactive: 95%.

With `CCCNC(=O)Nc1ccccc1SC` as the compound, how does the binding response (% of control) read?
Its binding response (% of control) is inconclusive: 104%.

Which binding response (% of control) does the source give for `COc1cc(C2NC(=O)NC3=C2C(=O)OC3)cc(OC)c1OC` (stereo not given) here?
Its binding response (% of control) is inconclusive: 75%.

Which binding response (% of control) does the source give for `O=C1CCCC2=C1C(c1ccc(O)c(Br)c1)C1=C(CCCC1=O)N2c1ccccc1` here?
The binding response (% of control) was inconclusive: 102%.

`CCN(CC)S(=O)(=O)c1cc(NC(=O)C(C)N2CCN(c3ccccn3)CC2)ccc1C` (stereo not given) was tested. Which binding response (% of control) did it give?
The binding response (% of control) was inconclusive: 105%.

Which binding response (% of control) does the source give for `CN1CCC(NC(=O)NC2CCCCC2)CC1` here?
Its binding response (% of control) is inconclusive: 108%.

With `COc1cccc(-n2c(N)c(C(=O)Nc3c(C)n(C)n(-c4ccccc4)c3=O)c3nc4ccccc4nc32)c1` as the compound, how does the binding response (% of control) read?
Its binding response (% of control) is inconclusive: 120%.

Which binding response (% of control) does the source give for `COc1ccc(CN(C)CC(=O)Nc2ccccc2C(F)(F)F)cc1` here?
The binding response (% of control) was inconclusive: 96.6%.

How did the binding response (% of control) turn out when `COc1ccc2nccc(/C=C/c3ccnc4ccc(OC)cc34)c2c1` was run?
The binding response (% of control) was inconclusive: 35.5%.

How did the binding response (% of control) turn out when `CCOC(=O)Cc1nn(Cc2nc(-c3ccc(C#N)cc3)cs2)c(=O)c2ccccc12` was run?
Its binding response (% of control) is inconclusive: 127%.

`Cc1cccc(NC(=O)COn2nnc3ccc(S(C)(=O)=O)cc32)c1` was tested. Which binding response (% of control) did it give?
The binding response (% of control) was inactive: 103%.

For `Cc1ccc(NNC(=O)c2ccno2)cc1C`, which binding response (% of control) is on record?
Its binding response (% of control) is inconclusive: 72.8%.

Which binding response (% of control) does the source give for `COc1ccccc1/C=C/C(=O)OCC(=O)Nc1c(F)cccc1F` here?
The binding response (% of control) was inconclusive: 67.6%.

Which binding response (% of control) does the source give for `O=C(O)CCS(=O)(=O)c1cc(Br)cc2c1N(C(=O)C1CC1)CC2` here?
Its binding response (% of control) is inconclusive: 83.1%.

`O=C(CC1CCCCC1)Nc1nc2ccccc2s1` was tested. Which binding response (% of control) did it give?
Its binding response (% of control) is inconclusive: 90.1%.

For `O=C(O)c1ccc(/C=N\Nc2ccc(S(=O)(=O)N3CCOCC3)cc2[N+](=O)[O-])cc1`, which binding response (% of control) is on record?
The binding response (% of control) was inconclusive: 90.5%.

Which binding response (% of control) does the source give for `C(=N\N=C\c1ccccc1)/c1ccccc1` here?
The binding response (% of control) was inconclusive: 113%.

`O=C(Nc1ccncc1)c1cccc2ccccc12` was tested. Which binding response (% of control) did it give?
Its binding response (% of control) is inconclusive: 107%.

How did the binding response (% of control) turn out when `CCN(CC)c1ccc(C(=O)N/N=C(\C)c2cccnc2)cc1` was run?
The binding response (% of control) was inconclusive: 105%.

How did the binding response (% of control) turn out when `Cc1nc2ccccc2c(=O)n1NC(=O)c1cc(Br)ccc1Cl` was run?
The binding response (% of control) was inconclusive: 107%.
